PubChem BioAssay AID686938 | Drosophila RNAi Screening Center – 2013
The screen tested about 23,000 reagents; shown is an unselected part of those that have a named target and a result. Of all reagents, 75 (0.33%) were called active. 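Raw plate signals without normalisation; calls rest on plate z-scores that were not deposited; ratio present for only 364 wells.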 Unmarked entries are inactive. Names joined by + are all predicted targets of the reagent. Not given: the dose of the treatment.

Aim: 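Knock-downs reducing store-operated calcium influx in Drosophila cells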 (primary screen)
Cells: Drosophila S2R+ cells
Reagents: long dsRNA against Drosophila genes, about 0.25 µg dsRNA per well, roughly 10,000 cells
Timing: 5 days of knock-down before the calcium assay
Conditions: thapsigargin (SERCA pump blocker) to empty calcium stores; entry signal taken 4 min after adding it
Read-out: 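Per-well fluo-4 fluorescence in two replicates, unnormalised, measured in resting cells and 4 min after store depletion by the SERCA blocker thapsigargin; ratio of the two present in few wells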
Scale: calcium entry signal: higher = stronger calcium signal after store depletion; entry to resting ratio: higher = more calcium entry relative to resting level; resting calcium signal: higher = higher resting calcium signal
Hit rule: 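Hit if the duplicate-averaged plate z-score for entry over resting signal is under −3; wells with weak total dye signal (Fmax z < −2) or more than 5 off-targets removed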
Meaning of the calls: active = strongly reduced calcium entry; inactive = no strong reduction

gene knocked down	dsRNA	calcium entry signal, replicate 1 (fluorescence units)	calcium entry signal, replicate 2 (fluorescence units)	entry to resting ratio	resting calcium signal, replicate 1 (fluorescence units)	resting calcium signal, replicate 2 (fluorescence units)
betaNACtes5 (GeneID 10178924)	DRSC19100	2.38e7	3.01e7		1.19e7	1.41e7
dpr18 (GeneID 32572)	DRSC19606	3.89e7	3.40e7		1.96e7	1.52e7
bsh (GeneID 35266)	DRSC03498	6.51e7	3.29e7		2.90e7	1.63e7
maf-S (GeneID 37336)	DRSC07348	2.05e7	2.41e7		1.03e7	1.12e7
parvin (GeneID 32990)	DRSC19468	3.61e7	3.58e7		1.67e7	1.40e7
CG30393 (GeneID 246588)	DRSC04253	2.86e7	3.32e7		1.33e7	1.45e7
CG12689 (GeneID 31676)	DRSC17879	3.29e7	3.49e7		1.59e7	1.69e7
Jhbp6 (GeneID 40479)	DRSC11714	2.39e7	3.70e7		1.19e7	1.61e7
dpr7 (GeneID 2768865)	DRSC17109	3.85e7	3.70e7		1.83e7	1.50e7
side-IV + asRNA:CR17025	DRSC14833	3.12e7	5.41e7		1.54e7	6.49e7
side-IV + asRNA:CR17025	DRSC15168	3.39e7	4.76e7		1.67e7	6.95e7
CG9205 (GeneID 38113)	DRSC08642	2.47e7	2.03e7		1.11e7	1.09e7
CG43253 (retired record) (GeneID 12797931)	DRSC09529	4.81e7	4.95e7		2.11e7	2.38e7
Stt3B (GeneID 43005)	DRSC16781	3.80e7	6.69e7		2.05e7	2.65e7
BaraA1 + BaraA2	DRSC05417	3.89e7	5.07e7		1.74e7	2.14e7
CG9377 (GeneID 34743)	DRSC03217	4.01e7			2.14e7	
CG6380 (GeneID 35040)	DRSC02950	4.31e7	2.79e7		1.93e7	1.37e7
EndoB (GeneID 37218)	DRSC07345	4.28e7	3.44e7		1.71e7	1.82e7
CG7632 (GeneID 40357)	DRSC11842	2.18e7	3.26e7		1.05e7	1.47e7
SdhA (GeneID 37228)	DRSC07547	3.09e7	2.89e7		1.50e7	1.49e7
CG33017 (GeneID 36811)	DRSC06573	4.12e7	4.46e7		1.79e7	2.18e7
CG33017 (GeneID 36811)	DRSC06574	4.11e7	3.98e7		1.80e7	1.98e7
CG14270 (GeneID 31319)	DRSC17913	3.69e7	5.31e7	2.2	1.70e7	2.22e7
CG17660 (GeneID 33347)	DRSC00513	4.85e7			2.87e7	
CG10793 (GeneID 31308)	DRSC17760	3.79e7	3.69e7	2.2	1.73e7	1.69e7
alpha-Est9 (GeneID 40897)	DRSC12621	3.83e7	3.27e7		1.91e7	1.64e7
pot (GeneID 32154)	DRSC19850	2.57e7	2.99e7		1.24e7	1.38e7
TyrR (GeneID 42136)	DRSC13259	3.58e7	3.06e7		1.86e7	1.57e7
TyrR (GeneID 42136)	DRSC16242	1.76e7	2.78e7		2.96e7	1.15e7
CG3868 (GeneID 39580)	DRSC10380	2.32e7	3.23e7		1.15e7	2.28e7
CG42650 (GeneID 10178825)	DRSC12462	3.49e7	3.83e7		1.76e7	1.91e7
Cad89D (GeneID 42006)	DRSC15022	2.94e7	4.86e7		1.65e7	6.73e7
Hsp70Bc (GeneID 48583)	DRSC16053	3.59e7	3.79e7		1.80e7	1.95e7
CG14074 (GeneID 40051)	DRSC10079	2.44e7	4.33e7		1.31e7	1.77e7
CG18744 (GeneID 59140)	DRSC15381	3.87e7	3.41e7		1.99e7	1.59e7
CG33155 + mRpL53	DRSC05461	5.36e7	6.71e7		2.36e7	2.34e7
SppL (GeneID 43128)	DRSC15228	4.55e7	6.69e7		2.18e7	2.88e7
VhaPPA1-2 (GeneID 41806)	DRSC16176	2.94e7	6.43e7		1.50e7	6.95e7
TfIIFalpha (GeneID 40790)	DRSC12608	1.96e7	2.72e7		1.09e7	1.42e7
CG6244 (GeneID 2768962)	DRSC10609	5.39e7	6.57e7		2.41e7	2.43e7

Targets above whose target name begins with S or s (5):
gene knocked down	dsRNA	calcium entry signal, replicate 1 (fluorescence units)	calcium entry signal, replicate 2 (fluorescence units)	entry to resting ratio	resting calcium signal, replicate 1 (fluorescence units)	resting calcium signal, replicate 2 (fluorescence units)
side-IV + asRNA:CR17025	DRSC14833	3.12e7	5.41e7		1.54e7	6.49e7
side-IV + asRNA:CR17025	DRSC15168	3.39e7	4.76e7		1.67e7	6.95e7
Stt3B (GeneID 43005)	DRSC16781	3.80e7	6.69e7		2.05e7	2.65e7
SdhA (GeneID 37228)	DRSC07547	3.09e7	2.89e7		1.50e7	1.49e7
SppL (GeneID 43128)	DRSC15228	4.55e7	6.69e7		2.18e7	2.88e7
